# Library screen at single concentrations

Chains of the proteins cited; added tags and fusions are not shown.
UniProt P9WFT3, whole entry: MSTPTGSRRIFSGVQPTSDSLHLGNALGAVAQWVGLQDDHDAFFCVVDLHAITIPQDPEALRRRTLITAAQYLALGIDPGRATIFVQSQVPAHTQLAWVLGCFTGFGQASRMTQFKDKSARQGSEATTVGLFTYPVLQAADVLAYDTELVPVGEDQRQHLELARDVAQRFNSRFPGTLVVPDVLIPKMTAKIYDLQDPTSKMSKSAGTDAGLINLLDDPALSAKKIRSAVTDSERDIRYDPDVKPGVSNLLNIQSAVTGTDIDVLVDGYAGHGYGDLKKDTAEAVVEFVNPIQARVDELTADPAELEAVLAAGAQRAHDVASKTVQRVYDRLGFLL

The values are deposited in ChEMBL (CHEMBL3988442, “University of Dundee, Small-Polar-MMV Screening Library” (2021)).

A: 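Cell assay of Leishmania donovani living inside macrophages; the read-out is not stated. Tested at 30 µM. Direction is inferred from retests: higher values go with stronger inhibition. Of about 69,000 compounds tested this way, about 1,000 (1.5%) reached 50% or more in at least one test.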
B: 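Enzyme assay of tryptophanyl-tRNA synthetase; the read-out is not stated. Target: Tryptophan-tRNA ligase, Mycobacterium tuberculosis (UniProt P9WFT3). Concentration: 10 µM. Direction is not recorded; retested compounds ran higher, which suggests that high means inhibition. About 65,000 compounds were tested under these conditions; 0.098% (about 64) showed 50% or more at least once.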
C: 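Whole-parasite assay of Trypanosoma brucei over 72 hours; the read-out is not stated. Tested at 30 µM. Direction is inferred from retests: higher values go with stronger inhibition. Values scatter widely below zero; nearly all retest evidence comes from the higher of the two concentrations used. Size under these conditions: about 64,000 compounds, about 940 of them at 50% or above in at least one test.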

Each number is a percent effect as filed.
The record does not define 0% and 100%; most values in the screen are far below 50% and negative numbers occur (in some assays of this library far below -100).
Compounds were drawn at random from those tested, without regard to their results.

- COc1ccc2c(c1)CCCN(C(C)C(=O)NC(C)C)C2 (stereo not given) : A: 20.53%; B: -2.064%; C: -27.21%
- NC(=O)C1CCN(c2nc3nccc(-c4cccnc4)c3c(=O)[nH]2)CC1 : A: 14.28%; B: 1.492%; C: -8.414%
- Clc1ccc(CN2CCC3(CC2)CC(c2cccnc2)=NO3)cc1 : A: -7.628%; B: 0.9507%
- COc1nc2c(cc1C(=O)NC(C)Cc1cnccn1)CCC2 (stereo not given) : A: 7.653%; B: 7.239%; C: 5.764%
- CC(C)c1noc(C2CCN(C(=O)C3CCCO3)CC2)n1 (stereo not given) : A: 11.71%; B: 0.08333%; C: -19.47%
- CCOc1cccc(CNc2cncc(-n3cccn3)n2)c1 : A: 0.7695%; B: -1.838%; C: 3.839%
- CCCc1cnc(C)nc1NC(C)Cc1cnccn1 (stereo not given) : A: 9.688%; B: -1.302%
- CCN(C)c1ncnc2c1CCN(Cc1csc(C)n1)CC2.O=C(O)C(F)(F)F.O=C(O)C(F)(F)F : A: 21.98%
- Cn1cnnc1CNC(=O)Nc1ccc(OC2CCC2)c(F)c1 : A: 27.86%; B: -1.687%; C: -13.69%
- O=C(CCCc1nc(C2CC2)no1)N1CCCC(c2ccn[nH]2)C1 (stereo not given) : A: 25.27%; B: -0.9909%; C: -3.084%
- c1cc(CN2CCOC(Cn3cccn3)C2)c2c(c1)OCCO2 (stereo not given) : A: 15.84%; B: -3.477%; C: 9.492%
- O=C(NCc1cnn2cccnc12)C1CC(=O)N(Cc2cccnc2)C1 (stereo not given) : A: -68.15%; B: -5.789%
- CC(C)CN(Cc1ccc(-n2cncn2)cc1)Cc1ccccn1 : A: -4.743%; B: -3.446%; C: -12.16%
- COCC1c2nnn(C)c2CCN1C(=O)COc1ccccc1OC (stereo not given) : A: 2.558%; C: -32.91%
- Cc1ccc(C)c(S(=O)(=O)CCN2CCc3c(ncn3C)C2)c1 : A: 12.27%; B: 26.28%; C: 2.082%
- O=C(O)C(F)(F)F.[H][C@@]12CCN(c3cccnc3)C[C@]1([H])CN(C(=O)c1ccc(F)cc1)C2 : A: -2.032%; C: -20.77%
- CC(=O)N1CCCn2nc(CNS(=O)(=O)N3CCC(C)CC3)cc2C1 : A: 21.37%; B: -5.068%; C: -4.851%
- Cc1nc(CN2CCc3ncnc(C4CC4)c3CC2)cs1.O=C(O)C(F)(F)F : A: 33.07%; C: -14.5%
- CN1CCN(CCO)C(=O)C12CCN(c1nccs1)CC2 : A: 10.16%; B: -1.402%; C: -68.85%
- Fc1ccc(CNCC2OCCc3cn(CC4CC4)nc32)cc1 (stereo not given) : B: -3.051%
- O=C(O)C(F)(F)F.[H][C@@]12CCN(Cc3nccs3)C[C@]1([H])O[C@H](C(=O)N(C)C)C2 : A: 4.208%
- O=S(=O)(NCCCN1CCCC1)c1cc(F)cc(F)c1 : A: -3.234%; B: 1.432%; C: -31.99%
- CCn1cnnc1CNC(=O)N1CCOC(c2ccc(Cl)cc2)C1 (stereo not given) : A: 41.75%; B: -3.207%; C: -31.18%
- O=C(O)C(F)(F)F.O=C(O)C(F)(F)F.[H][C@@]12C[C@@H](C(=O)NC)N(C(C)C)[C@]1([H])CN(Cc1csc(C)n1)C2 : A: 29.27%; C: 4.031%

Once more, the final 2:

- CCn1cnnc1CNC(=O)N1CCOC(c2ccc(Cl)cc2)C1 (stereo not given) : A: 41.75%; B: -3.207%; C: -31.18%
- O=C(O)C(F)(F)F.O=C(O)C(F)(F)F.[H][C@@]12C[C@@H](C(=O)NC)N(C(C)C)[C@]1([H])CN(Cc1csc(C)n1)C2 : A: 29.27%; C: 4.031%